Reference: patent US20050048063A1
No constants are given. Whether binding was seen depends on the method and setting. Some entries that bind do so weakly or less than the wild type.

Chains of the proteins cited; added tags and fusions are not shown. Lines headed by an entry give the natural chain unless they say otherwise; changes in a name come on top.
UniProt P02453: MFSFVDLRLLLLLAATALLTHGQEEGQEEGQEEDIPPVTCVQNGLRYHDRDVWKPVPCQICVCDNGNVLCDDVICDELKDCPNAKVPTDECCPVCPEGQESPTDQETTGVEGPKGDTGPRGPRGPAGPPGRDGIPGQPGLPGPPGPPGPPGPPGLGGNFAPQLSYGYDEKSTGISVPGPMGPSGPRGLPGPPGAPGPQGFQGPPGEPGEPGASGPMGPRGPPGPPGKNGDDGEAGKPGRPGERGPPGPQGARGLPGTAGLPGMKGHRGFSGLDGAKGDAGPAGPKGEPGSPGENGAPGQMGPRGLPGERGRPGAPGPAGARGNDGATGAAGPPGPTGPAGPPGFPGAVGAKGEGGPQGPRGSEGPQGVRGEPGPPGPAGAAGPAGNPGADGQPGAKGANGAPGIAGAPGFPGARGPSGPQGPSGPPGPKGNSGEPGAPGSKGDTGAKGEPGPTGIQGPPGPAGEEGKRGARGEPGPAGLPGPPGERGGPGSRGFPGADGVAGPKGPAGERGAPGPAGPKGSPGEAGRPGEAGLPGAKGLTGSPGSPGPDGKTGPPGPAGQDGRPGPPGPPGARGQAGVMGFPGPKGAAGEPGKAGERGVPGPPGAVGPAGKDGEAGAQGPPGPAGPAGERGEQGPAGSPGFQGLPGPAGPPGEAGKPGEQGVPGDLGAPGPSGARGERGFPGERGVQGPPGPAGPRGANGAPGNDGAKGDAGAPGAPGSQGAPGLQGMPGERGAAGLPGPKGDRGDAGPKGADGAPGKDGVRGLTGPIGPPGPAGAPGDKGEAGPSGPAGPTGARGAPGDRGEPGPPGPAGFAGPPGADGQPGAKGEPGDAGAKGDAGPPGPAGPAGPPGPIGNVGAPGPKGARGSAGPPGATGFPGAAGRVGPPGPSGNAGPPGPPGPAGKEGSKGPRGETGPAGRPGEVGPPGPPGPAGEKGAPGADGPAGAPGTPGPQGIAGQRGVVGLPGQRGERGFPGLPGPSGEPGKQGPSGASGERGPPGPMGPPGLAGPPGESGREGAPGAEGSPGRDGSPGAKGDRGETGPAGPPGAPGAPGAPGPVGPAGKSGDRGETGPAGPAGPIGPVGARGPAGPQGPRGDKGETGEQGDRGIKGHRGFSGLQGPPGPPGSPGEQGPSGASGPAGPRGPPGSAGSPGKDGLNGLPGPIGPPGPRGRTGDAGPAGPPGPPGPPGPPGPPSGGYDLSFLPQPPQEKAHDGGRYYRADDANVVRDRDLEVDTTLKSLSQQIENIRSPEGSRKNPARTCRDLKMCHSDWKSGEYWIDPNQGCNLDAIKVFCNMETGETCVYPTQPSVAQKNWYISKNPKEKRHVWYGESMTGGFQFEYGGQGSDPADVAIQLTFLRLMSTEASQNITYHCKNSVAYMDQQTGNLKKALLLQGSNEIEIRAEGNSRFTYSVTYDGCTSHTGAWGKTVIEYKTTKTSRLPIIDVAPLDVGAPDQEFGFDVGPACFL
UniProt P02465: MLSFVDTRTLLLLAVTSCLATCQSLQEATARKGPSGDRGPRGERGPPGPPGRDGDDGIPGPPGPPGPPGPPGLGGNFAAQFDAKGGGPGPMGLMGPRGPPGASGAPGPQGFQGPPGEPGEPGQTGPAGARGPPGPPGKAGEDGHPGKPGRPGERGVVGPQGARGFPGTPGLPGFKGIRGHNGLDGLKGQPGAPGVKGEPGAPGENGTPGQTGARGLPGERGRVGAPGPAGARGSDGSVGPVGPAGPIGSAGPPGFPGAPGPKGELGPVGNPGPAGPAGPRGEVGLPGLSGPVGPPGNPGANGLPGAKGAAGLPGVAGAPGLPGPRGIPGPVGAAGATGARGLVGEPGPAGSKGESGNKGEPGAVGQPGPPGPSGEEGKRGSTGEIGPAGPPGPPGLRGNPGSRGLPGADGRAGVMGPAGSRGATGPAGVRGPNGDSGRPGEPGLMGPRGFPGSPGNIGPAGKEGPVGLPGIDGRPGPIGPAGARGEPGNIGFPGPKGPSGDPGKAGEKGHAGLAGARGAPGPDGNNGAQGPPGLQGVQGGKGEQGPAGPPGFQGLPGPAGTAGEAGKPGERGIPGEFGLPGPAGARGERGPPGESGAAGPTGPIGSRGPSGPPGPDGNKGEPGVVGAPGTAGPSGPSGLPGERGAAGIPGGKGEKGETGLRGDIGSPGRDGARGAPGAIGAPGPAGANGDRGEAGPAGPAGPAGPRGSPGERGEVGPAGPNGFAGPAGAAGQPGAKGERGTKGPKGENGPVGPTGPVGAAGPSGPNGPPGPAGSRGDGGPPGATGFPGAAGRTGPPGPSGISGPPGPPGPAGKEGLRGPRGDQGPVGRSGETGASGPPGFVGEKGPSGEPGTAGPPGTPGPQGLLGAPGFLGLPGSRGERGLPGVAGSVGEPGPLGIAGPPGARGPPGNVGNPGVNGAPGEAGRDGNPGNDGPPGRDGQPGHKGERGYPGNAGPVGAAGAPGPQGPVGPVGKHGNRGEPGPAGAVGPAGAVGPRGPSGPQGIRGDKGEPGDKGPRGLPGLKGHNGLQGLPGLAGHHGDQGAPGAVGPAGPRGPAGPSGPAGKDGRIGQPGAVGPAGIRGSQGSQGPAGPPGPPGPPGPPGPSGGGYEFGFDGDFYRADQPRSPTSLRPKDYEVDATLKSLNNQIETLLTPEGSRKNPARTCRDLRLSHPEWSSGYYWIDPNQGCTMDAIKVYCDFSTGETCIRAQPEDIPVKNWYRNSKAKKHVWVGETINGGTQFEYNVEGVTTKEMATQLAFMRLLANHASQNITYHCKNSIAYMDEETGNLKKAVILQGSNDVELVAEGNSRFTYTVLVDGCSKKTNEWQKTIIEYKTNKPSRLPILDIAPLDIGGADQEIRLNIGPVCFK
UniProt P02463: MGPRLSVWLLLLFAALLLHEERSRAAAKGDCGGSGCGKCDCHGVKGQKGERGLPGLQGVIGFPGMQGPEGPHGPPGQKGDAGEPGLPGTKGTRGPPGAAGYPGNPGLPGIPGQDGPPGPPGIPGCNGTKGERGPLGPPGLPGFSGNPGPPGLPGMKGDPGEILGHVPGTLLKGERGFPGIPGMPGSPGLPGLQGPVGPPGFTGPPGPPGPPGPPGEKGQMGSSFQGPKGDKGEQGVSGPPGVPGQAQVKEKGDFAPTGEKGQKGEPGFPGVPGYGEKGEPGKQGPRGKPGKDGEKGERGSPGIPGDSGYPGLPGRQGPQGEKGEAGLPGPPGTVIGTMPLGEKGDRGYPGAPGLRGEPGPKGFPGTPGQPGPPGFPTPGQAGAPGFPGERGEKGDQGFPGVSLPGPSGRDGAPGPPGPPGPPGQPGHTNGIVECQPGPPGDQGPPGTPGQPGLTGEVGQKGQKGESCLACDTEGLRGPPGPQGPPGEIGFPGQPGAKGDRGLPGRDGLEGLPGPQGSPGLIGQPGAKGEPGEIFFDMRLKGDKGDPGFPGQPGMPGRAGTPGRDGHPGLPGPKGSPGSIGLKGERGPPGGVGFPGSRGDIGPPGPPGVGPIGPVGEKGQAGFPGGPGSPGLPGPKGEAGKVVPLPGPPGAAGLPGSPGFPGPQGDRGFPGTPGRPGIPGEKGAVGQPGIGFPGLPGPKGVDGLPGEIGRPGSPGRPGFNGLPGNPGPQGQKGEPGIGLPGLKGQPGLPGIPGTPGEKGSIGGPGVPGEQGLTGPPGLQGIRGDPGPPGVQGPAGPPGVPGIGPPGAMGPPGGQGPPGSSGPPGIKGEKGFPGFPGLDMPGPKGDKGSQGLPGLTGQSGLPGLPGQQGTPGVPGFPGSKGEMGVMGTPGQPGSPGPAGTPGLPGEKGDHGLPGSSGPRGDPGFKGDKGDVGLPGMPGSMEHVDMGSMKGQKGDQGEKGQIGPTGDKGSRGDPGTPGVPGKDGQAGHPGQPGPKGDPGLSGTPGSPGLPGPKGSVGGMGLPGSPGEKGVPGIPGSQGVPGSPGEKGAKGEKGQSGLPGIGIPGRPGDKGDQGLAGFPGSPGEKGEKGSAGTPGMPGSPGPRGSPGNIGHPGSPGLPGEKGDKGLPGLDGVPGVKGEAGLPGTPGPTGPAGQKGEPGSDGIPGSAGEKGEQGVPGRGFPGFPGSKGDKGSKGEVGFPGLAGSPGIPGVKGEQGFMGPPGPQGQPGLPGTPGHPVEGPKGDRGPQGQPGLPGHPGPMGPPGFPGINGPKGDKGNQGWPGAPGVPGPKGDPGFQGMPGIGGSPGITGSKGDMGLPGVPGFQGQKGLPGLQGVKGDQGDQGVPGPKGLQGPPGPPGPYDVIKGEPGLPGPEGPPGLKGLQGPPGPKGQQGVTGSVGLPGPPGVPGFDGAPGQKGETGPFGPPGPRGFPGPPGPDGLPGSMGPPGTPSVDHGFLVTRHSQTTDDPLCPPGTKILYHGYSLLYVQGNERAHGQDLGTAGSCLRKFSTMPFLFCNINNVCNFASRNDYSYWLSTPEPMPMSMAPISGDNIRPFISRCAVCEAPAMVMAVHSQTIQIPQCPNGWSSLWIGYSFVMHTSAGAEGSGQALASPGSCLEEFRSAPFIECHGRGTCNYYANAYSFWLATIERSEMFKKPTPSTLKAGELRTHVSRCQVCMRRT

Key:
[1] = molecular target: T1, collagen I from calf skin (Sigma), native or boiled (calf) (UniProt P02453+P02465); test: phage binding to collagen-coated surface
[2] = molecular target: collagen IV from Engelbreth Holm Swarm tumors (Sigma), native or boiled (UniProt P02463); test: phage binding to collagen-coated surface
[3] = molecular target: T1, collagen I from calf skin (Sigma), native or boiled (calf); test: phage binding to boiled (denatured) against native collagen
[4] = molecular target: collagen IV from Engelbreth Holm Swarm tumors (Sigma), native or boiled (UniProt P02463); test: as above
[5] = molecular target: T1, collagen I from calf skin (Sigma), native or boiled (calf); test: phage binding to collagen-coated ELISA plate, pfu recovered
[6] = molecular target: collagen IV from Engelbreth Holm Swarm tumors (Sigma), native or boiled (UniProt P02463); test: as above
[7] = molecular target: T1, collagen I from calf skin (Sigma), native or boiled (calf); test: phage binding to boiled (denatured) against native collagen on ELISA plate, pfu recovered
[8] = molecular target: collagen IV from Engelbreth Holm Swarm tumors (Sigma), native or boiled (UniProt P02463); test: as above

Measured: binding

B1: CREKA (SEQ ID NO: 1)-displaying phage (peptide, not shown: large carriers)
chain: CREKA
binds: [1] | [2] | [3] | [4] | [5] | [6] | [7] | [8]
